We go through five molecules from the supplement of paper PMC10689618.

Some of the results follow. Many values rest on one well or one pass, so single values are uncertain.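 Labelled rat cortical synaptosomes were engulfed by primary human fetal astrocytes. Engulfment equaled a red/green ratio, corrected for calcein live-cell signal and normalized to the plate median. Compounds were toxic when calcein dropped over 30%, and reduced phagocytosis when below 70% of the median above 5 µM.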

In test [1] the test system is Human fetal astrocytes. The experiment in a line: loss of total cells relative to no-compound high-control median (toxicity); higher = more toxic (fewer cells). Conditions: 24 h.
Test [2] concerns Human fetal astrocytes. The experiment in a line: synaptosome phagocytosis (pHrodo/calcein intensity ratio) relative to plate median of data wells; higher = more phagocytosis. The conditions noted are these: 24 h.

In the case of `CN(N)C=O`, the “loss of total cells” value in test [1] (1.39 µM) worked out at 1.8%; in test [1] (2.78 µM), 8.3%; in test [1] (5.56 µM), 8%; in test [1] (11.11 µM), 4.6%; in test [1] (22.22 µM), 6.1%. In addition, the synaptosome phagocytosis in test [2] (1.39 µM) was 79.6%; in test [2] (2.78 µM), 86.7%; in test [2] (5.56 µM), 117%; in test [2] (11.11 µM), 116%; in test [2] (22.22 µM), 90.4%.
For `CC(C)C[C@H]1C(=O)N2CCC[C@H]2[C@]2(O)O[C@](NC(=O)[C@@H]3C=C4c5cccc6[nH]c(Br)c(c56)C[C@H]4N(C)C3)(C(C)C)C(=O)N12`, the “loss of total cells” value in test [1] (1.39 µM) is -1.7%; in test [1] (2.78 µM), -7.6%; in test [1] (5.56 µM) it was 6.3%; in test [1] (11.11 µM) it was -2.3%; in test [1] (22.22 µM), 10.2%. For the same molecule, the synaptosome phagocytosis in test [2] (1.39 µM) is 101%; in test [2] (2.78 µM), 114%; in test [2] (5.56 µM), 130%; in test [2] (11.11 µM), 92.8%; in test [2] (22.22 µM), 47.9%.
As for `CN[C@@H]1[C@@H](O)[C@@H](O[C@@H]2[C@@H](O)[C@H](O[C@H]3O[C@H]([C@@H](C)O)[C@@H](O)[C@H](O)[C@H]3N)[C@@H](N)C[C@H]2N)OC[C@]1(C)O`, the “loss of total cells” value in test [1] (1.39 µM) was -9.8%; in test [1] (2.78 µM), -1.8%; in test [1] (5.56 µM), -2.9%; in test [1] (11.11 µM) it was 5.4%; in test [1] (22.22 µM), 9.6%. The synaptosome phagocytosis in test [2] (1.39 µM) is 119%; in test [2] (2.78 µM), 83.2%; in test [2] (5.56 µM), 89.2%; in test [2] (11.11 µM), 82.6%; in test [2] (22.22 µM), 70%.
Consider `CC(C)[C@@H]1NC(=O)[C@H](C)OC(=O)[C@@H](C(C)C)NC(=O)[C@@H](C(C)C)OC(=O)[C@H](C(C)C)NC(=O)[C@H](C)OC(=O)[C@@H](C(C)C)NC(=O)[C@@H](C(C)C)OC(=O)[C@H](C(C)C)NC(=O)[C@H](C)OC(=O)[C@@H](C(C)C)NC(=O)[C@@H](C(C)C)OC1=O` [Valinomycin], for which the “loss of total cells” value worked out at 9.8% in test [1] (1.39 µM); 31.4% in test [1] (2.78 µM); 24.2% in test [1] (5.56 µM); 26.4% in test [1] (11.11 µM); 31.1% in test [1] (22.22 µM). In addition, the synaptosome phagocytosis in test [2] (1.39 µM) was 37.7%; in test [2] (2.78 µM), 50.1%; in test [2] (5.56 µM) it was 58.2%; in test [2] (11.11 µM), 66.6%; in test [2] (22.22 µM), 43.9%.
Regarding `CCN1C[C@]2(COC)[C@H](O)C[C@H](OC)[C@@]34[C@@H]5C[C@@]6(O)[C@H](OC(=O)c7ccccc7)[C@@H]5[C@@](OC(C)=O)([C@@H]([C@H](OC)[C@H]23)[C@@H]14)[C@@H](O)[C@@H]6OC`, the “loss of total cells” value in test [1] (1.39 µM) is 8%; in test [1] (2.78 µM), -8.5%; in test [1] (5.56 µM) it was -12.5%; in test [1] (11.11 µM) it was 13.5%; in test [1] (22.22 µM), 5.8%. For the same molecule, the synaptosome phagocytosis is 87.3% in test [2] (1.39 µM); 99% in test [2] (2.78 µM); 78.2% in test [2] (5.56 µM); 94.1% in test [2] (11.11 µM); 148% in test [2] (22.22 µM).
